{"source": "PubChem BioAssay AID1508597 (Cure First, 2020)", "screen": "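Knock-downs altering ovarian cancer cell survival with or without PARP inhibitor rucaparib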 (primary screen)", "system": "human ovarian carcinoma lines grown from tumours: OCI-P5x (papillary serous) and OCI-C5x (clear cell)", "reagents": "siRNA pool against human genes, 1.25 pmol siRNA per well", "time to read-out": "72 h or 96 h, depending on the cell culture", "conditions": "rucaparib 20 µM (about IC30) or vehicle, present until read-out", "rucaparib or vehicle": "Rucaparib", "cell line": "OCI-P5x (serous)", "read-out": "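Luminescent ATP-based viability assay read 72 or 96 h after transfection, depending on culture, given as normalised percent viability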", "scale": "viability, normalised: higher = more viable cells remaining", "rule for the call": "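Active when normalised viability falls below 80 percent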", "meaning of the calls": "active = viability under 80%; inactive = viability 80% or more", "note": "This is a random part of the about 2,100 reagents, in one setting of the screen. 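Calls flag viability under 80% in either arm, not effects specific to rucaparib; the reference for percent is not stated.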 Reagent sequences are not shown. The record does not give: the 100% reference."}
The opening 2 entries, ahead of the listing:
{"gene knocked down": "NDC80", "technical replicate": "1", "viability, normalised (%)": 57.5, "Call": "active"}
{"gene knocked down": "NDC80", "technical replicate": "2", "viability, normalised (%)": 73.2, "Call": "active"}

The list itself, repeating the preview:
{"gene knocked down": "NDC80", "technical replicate": "1", "viability, normalised (%)": 57.5, "Call": "active"}
{"gene knocked down": "NDC80", "technical replicate": "2", "viability, normalised (%)": 73.2, "Call": "active"}
{"gene knocked down": "NDC80", "technical replicate": "3", "viability, normalised (%)": 58.1, "Call": "active"}
{"gene knocked down": "ASXL3", "technical replicate": "1", "viability, normalised (%)": 74.9, "Call": "active"}
{"gene knocked down": "ASXL3", "technical replicate": "2", "viability, normalised (%)": 72.3, "Call": "active"}
{"gene knocked down": "ASXL3", "technical replicate": "3", "viability, normalised (%)": 74.7, "Call": "active"}
{"gene knocked down": "ADK", "technical replicate": "1", "viability, normalised (%)": 116, "Call": "inactive"}
{"gene knocked down": "ADK", "technical replicate": "2", "viability, normalised (%)": 92.4, "Call": "inactive"}
{"gene knocked down": "ADK", "technical replicate": "3", "viability, normalised (%)": 86.3, "Call": "inactive"}
{"gene knocked down": "CLDN4", "technical replicate": "1", "viability, normalised (%)": 86.1, "Call": "inactive"}
{"gene knocked down": "CLDN4", "technical replicate": "2", "viability, normalised (%)": 95.6, "Call": "inactive"}
{"gene knocked down": "CLDN4", "technical replicate": "3", "viability, normalised (%)": 81.2, "Call": "inactive"}
